According to US8889419 (INDIANA UNIVERSITY RESEARCH AND TECHNOLOGY, dated 2014):
Values belong to the binder of their own block, whether it stands above or below them.

Protein sequences, listed by entry. Tags and fused reporters are not part of them. Residues count along the entry.
UniProt P13612, 34-1032, chain 1 of 2: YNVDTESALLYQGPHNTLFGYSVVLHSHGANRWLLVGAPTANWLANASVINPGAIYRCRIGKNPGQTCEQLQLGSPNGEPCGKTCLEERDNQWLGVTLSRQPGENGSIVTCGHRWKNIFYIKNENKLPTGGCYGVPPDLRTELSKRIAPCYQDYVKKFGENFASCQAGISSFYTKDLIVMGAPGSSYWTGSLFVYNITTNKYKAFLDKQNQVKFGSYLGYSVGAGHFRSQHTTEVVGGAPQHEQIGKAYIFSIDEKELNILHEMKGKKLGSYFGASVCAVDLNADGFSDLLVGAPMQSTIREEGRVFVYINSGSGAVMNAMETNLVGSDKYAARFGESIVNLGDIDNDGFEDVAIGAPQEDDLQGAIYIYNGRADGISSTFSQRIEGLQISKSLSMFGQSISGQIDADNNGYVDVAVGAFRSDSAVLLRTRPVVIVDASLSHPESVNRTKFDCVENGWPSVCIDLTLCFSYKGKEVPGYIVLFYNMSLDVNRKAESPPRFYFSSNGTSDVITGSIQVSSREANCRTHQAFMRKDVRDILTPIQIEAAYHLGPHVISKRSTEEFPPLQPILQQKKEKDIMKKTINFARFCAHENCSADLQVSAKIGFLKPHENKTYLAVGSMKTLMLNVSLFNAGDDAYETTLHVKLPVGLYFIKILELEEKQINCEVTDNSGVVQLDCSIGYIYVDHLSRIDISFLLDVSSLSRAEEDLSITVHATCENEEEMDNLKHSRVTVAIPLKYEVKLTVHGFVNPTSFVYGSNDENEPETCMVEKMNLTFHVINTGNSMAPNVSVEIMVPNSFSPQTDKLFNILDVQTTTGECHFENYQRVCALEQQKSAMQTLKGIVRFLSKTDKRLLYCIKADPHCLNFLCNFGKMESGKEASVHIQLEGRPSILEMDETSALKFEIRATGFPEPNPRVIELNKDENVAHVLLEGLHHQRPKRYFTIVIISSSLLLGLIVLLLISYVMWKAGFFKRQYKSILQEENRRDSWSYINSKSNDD

Assays:
[1] = biological target: T1, integrin VLA-4 on HL60 cells (UniProt P13612 34-1032; P05556 21-798); test: adhesion of HL60 cells to fragment-coated plates
T1 construct: whole, on cells; HL60 cells express VLA-4 but not VLA-5 by flow cytometry; also called CD49d

[2] = biological target: T1, integrin VLA-4 on HL60 cells; test: adhesion of HL60 cells (VLA-4 positive) to fragment-coated plates

binding result [1]: no binding (tested: 2 µg/cm^2 coating)
B1: recombinant fibronectin fragment CH-271 (other, human)
chain: PTDLRFTNIGPDTMRVTWAPPPSIDLTNFLVRYSPVKNEEDVAELSISPSDNAVVLTNLLPGTEYVVSVSSVYEQHESTPLRGRQKTGLDSPTGIDFSDITANSFTVHWIAPRATITGYRIRHHPEHFSGRPREDRVPHSRNSITLTNLTPGTEYVVSIVALNGREESPLLIGQQSTVSDVPRDLEVVAATPTSLLISWDAPAVTVRYYRITYGETGGNSPVQEFTVPGSKSTATISGLKPGVDYTITVYAVTGRGDSPASSKPISINYRTEIDKPSMAIPAPTDLKFTQVTPTSLSAQWTPPNVQLTGYRVRVTPKEKTGPMKEINLAPDSSSVVVSGLMVATKYEVSVYALKDTLTSRPAQGVVTTLENVSPPRRARVTDATETTITISWRTKTETITGFQVDAVPANGQTPIQRTIKPDVRSYTITGLQPGTDYKIYLYTLNDNARSSPVVIDASTAIDAPSNLRFLATTPNSLLVSWQPPRARITGYIIKYEKPGSPPREVVPRPRPGVTEATITGLEPGTEYTIYVIALKNNQKSEPLIGRKKT
notes: CBD + HBD, no CS1

binding result [2]: binds
B2: recombinant fibronectin fragment CH-296 (other, human)
chain: PTDLRFTNIGPDTMRVTWAPPPSIDLTNFLVRYSPVKNEEDVAELSISPSDNAVVLTNLLPGTEYVVSVSSVYEQHESTPLRGRQKTGLDSPTGIDFSDITANSFTVHWIAPRATITGYRIRHHPEHFSGRPREDRVPHSRNSITLTNLTPGTEYVVSIVALNGREESPLLIGQQSTVSDVPRDLEVVAATPTSLLISWDAPAVTVRYYRITYGETGGNSPVQEFTVPGSKSTATISGLKPGVDYTITVYAVTGRGDSPASSKPISINYRTEIDKPSMAIPAPTDLKFTQVTPTSLSAQWTPPNVQLTGYRVRVTPKEKTGPMKEINLAPDSSSVVVSGLMVATKYEVSVYALKDTLTSRPAQGVVTTLENVSPPRRARVTDATETTITISWRTKTETITGFQVDAVPANGQTPIQRTIKPDVRSYTITGLQPGTDYKIYLYTLNDNARSSPVVIDASTAIDAPSNLRFLATTPNSLLVSWQPPRARITGYIIKYEKPGSPPREVVPRPRPGVTEATITGLEPGTEYTIYVIALKNNQKSEPLIGRKKTDELPQLVTLPHPNLHGPEILDVPST
